Source: ChEMBL document CHEMBL3988442, “University of Dundee, Small-Polar-MMV Screening Library” (2021).

Chains of the proteins cited; added tags and fusions are not shown. Residues count along the entry.
UniProt I6X8D2, whole entry: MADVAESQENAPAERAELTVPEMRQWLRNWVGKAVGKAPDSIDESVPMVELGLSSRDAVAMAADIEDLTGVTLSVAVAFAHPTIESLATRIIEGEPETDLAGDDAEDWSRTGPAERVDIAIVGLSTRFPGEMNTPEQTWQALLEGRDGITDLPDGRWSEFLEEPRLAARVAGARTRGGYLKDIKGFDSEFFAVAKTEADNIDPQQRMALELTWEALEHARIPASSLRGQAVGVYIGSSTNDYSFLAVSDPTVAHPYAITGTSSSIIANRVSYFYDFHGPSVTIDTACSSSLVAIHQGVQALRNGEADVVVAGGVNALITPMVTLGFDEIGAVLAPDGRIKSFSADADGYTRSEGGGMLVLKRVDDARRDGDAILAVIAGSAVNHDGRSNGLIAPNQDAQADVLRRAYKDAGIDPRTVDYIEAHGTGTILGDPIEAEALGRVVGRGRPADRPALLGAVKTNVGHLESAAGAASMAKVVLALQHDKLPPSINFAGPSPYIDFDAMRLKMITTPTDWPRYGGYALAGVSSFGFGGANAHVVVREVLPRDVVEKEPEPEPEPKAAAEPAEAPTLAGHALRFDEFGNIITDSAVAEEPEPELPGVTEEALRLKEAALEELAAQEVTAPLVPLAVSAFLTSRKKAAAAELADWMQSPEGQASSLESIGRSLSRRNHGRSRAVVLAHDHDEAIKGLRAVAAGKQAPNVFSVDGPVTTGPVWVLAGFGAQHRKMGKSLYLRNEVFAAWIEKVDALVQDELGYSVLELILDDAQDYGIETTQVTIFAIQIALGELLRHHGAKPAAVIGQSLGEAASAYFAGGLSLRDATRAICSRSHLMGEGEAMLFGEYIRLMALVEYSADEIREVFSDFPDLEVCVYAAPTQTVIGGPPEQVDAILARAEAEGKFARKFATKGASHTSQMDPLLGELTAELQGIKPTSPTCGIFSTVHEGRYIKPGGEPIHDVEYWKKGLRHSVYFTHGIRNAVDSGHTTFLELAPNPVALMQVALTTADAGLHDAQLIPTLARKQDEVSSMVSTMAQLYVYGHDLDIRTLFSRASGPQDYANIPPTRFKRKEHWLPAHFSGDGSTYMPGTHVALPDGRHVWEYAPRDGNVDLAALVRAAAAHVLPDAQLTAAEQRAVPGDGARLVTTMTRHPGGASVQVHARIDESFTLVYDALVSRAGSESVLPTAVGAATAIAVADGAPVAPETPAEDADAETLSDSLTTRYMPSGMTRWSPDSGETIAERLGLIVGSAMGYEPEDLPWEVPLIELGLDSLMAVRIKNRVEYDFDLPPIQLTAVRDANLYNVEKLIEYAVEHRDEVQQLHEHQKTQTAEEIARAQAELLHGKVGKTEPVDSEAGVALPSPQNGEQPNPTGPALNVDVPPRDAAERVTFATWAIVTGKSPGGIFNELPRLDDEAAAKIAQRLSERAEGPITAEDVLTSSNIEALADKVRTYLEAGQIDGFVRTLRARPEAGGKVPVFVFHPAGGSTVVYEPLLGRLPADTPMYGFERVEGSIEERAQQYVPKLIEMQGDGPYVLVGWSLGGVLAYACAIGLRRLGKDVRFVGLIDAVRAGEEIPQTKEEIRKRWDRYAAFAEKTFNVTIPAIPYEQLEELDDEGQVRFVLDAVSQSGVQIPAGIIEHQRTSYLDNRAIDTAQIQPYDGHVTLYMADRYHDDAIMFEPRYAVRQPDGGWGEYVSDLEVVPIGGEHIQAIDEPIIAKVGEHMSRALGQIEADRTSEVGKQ
UniProt Q8IDJ8, 1-583: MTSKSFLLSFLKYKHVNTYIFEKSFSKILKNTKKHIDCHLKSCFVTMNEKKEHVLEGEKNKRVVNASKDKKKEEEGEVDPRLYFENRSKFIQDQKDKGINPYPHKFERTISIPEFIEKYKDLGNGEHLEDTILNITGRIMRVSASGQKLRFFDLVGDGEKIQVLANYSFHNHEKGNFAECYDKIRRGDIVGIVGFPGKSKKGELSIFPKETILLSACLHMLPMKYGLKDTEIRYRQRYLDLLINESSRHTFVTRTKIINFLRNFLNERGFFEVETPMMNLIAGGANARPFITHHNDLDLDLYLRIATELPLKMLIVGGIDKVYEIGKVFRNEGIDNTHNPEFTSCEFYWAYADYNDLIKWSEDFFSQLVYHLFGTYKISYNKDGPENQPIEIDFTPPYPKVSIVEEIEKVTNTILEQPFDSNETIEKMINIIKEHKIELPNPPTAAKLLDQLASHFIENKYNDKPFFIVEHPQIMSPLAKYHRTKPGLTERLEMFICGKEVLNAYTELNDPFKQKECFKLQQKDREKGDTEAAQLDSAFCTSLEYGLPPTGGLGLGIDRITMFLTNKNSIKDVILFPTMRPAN
UniProt A4I591, 1-473: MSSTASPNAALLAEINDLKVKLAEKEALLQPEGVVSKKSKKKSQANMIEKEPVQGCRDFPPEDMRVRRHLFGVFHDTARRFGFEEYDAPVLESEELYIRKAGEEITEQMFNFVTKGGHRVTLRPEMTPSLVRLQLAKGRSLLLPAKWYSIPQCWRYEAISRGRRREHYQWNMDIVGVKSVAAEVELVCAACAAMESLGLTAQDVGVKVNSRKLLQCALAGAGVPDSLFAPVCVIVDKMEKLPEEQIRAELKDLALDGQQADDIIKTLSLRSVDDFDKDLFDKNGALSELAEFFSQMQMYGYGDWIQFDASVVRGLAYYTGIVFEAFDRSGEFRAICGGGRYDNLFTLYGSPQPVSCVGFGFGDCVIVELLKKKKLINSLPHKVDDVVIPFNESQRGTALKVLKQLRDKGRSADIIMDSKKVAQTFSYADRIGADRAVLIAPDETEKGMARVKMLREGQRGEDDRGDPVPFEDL
UniProt Q4DA54, 1-478: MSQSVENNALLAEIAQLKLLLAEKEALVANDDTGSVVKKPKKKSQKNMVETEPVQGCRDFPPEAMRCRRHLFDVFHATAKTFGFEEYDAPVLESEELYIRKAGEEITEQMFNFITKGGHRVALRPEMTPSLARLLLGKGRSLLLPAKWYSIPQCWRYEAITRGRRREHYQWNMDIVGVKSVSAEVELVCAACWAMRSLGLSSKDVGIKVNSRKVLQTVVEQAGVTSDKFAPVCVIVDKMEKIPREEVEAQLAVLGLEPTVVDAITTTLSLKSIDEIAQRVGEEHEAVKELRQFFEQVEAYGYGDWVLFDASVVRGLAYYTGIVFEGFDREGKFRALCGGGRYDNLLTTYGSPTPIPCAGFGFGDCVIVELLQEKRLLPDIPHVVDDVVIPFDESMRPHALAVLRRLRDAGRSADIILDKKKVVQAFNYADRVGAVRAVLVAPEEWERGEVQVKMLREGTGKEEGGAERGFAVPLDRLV

Pks13 thioesterase: 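Polyketide synthase Pks13, Mycobacterium tuberculosis (UniProt I6X8D2). Enzyme assay of the thioesterase domain of polyketide synthase 13; the read-out is not stated. Compounds at 30 µM. The record gives no direction; the compounds picked for IC50 retests had high values, so higher reads as stronger inhibition. Of about 67,000 compounds tested this way, about 300 (0.46%) reached 50% or more in at least one test.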
PfKRS1: 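Enzyme assay of the cytosolic lysyl-tRNA synthetase in 384-well plates, read by luminescence. Target: Lysine-tRNA ligase, Plasmodium falciparum 3D7 (UniProt Q8IDJ8). Compounds at 30 µM. Direction is inferred from only a few compounds that gave an IC50; most scored high, so higher reads as stronger inhibition. About 69,000 compounds were tested under these conditions; 0.071% (about 49) showed 50% or more at least once.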
LiHisRS: 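Histidine-tRNA ligase, Leishmania infantum (UniProt A4I591). Enzyme assay of histidyl-tRNA synthetase; the read-out is not stated. Compounds at 30 µM. Direction is inferred from retests: higher values go with stronger inhibition. The assay is labelled LdHisRS but filed under L. infantum. Of about 69,000 compounds tested this way, about 410 (0.6%) reached 50% or more in at least one test.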
TcHisRS: 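Histidine-tRNA ligase, Trypanosoma cruzi CL Brener (UniProt Q4DA54). Enzyme assay of histidyl-tRNA synthetase; the read-out is not stated. Compounds at 30 µM. Higher reads as stronger inhibition (inferred: compounds with an IC50 in retests scored well above the rest). Of about 69,000 compounds tested this way, about 31 (0.045%) reached 50% or more in at least one test.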

Values are the deposited “Percent Effect”, in %.
The record does not define 0% and 100%; most values in the screen are far below 50% and negative numbers occur (in some assays of this library far below -100).
The compounds are a random part of those screened.
A dash means the value is not listed here; it may have been measured.

| # | Compound | Pks13 thioesterase | PfKRS1 | LiHisRS | TcHisRS |
|---|---|---|---|---|---|
| 1 | `CCc1cc(=O)[nH]c(-n2nc(C3CC3)cc2NC(=O)C2CC2)n1` | 21.28% | 1.85% | 17.95% | 3.614% |
| 2 | `O=c1c2cn[nH]c2nc(SCCN2CCCC2)n1-c1ccccc1` | -11.08% | -0.1601% | 14.94% | 7.216% |
| 3 | `Cn1c(N)nnc1SC1CCCN(c2ccccc2)C1=O` (stereo not drawn) | -41.81% | -3.939% | 21.13% | 7.006% |
| 4 | `CN(C(=O)c1cccc(C(=O)NS(C)(=O)=O)c1)c1ccccc1` | -17.26% | 3.086% | 14.15% | 2.51% |
| 5 | `Cc1nc(N2CCCC(C)C2)nc2cc(S(C)(=O)=O)ccc12` (stereo not drawn) | -23.41% | 2.077% | 30.14% | -3.279% |
| 6 | `O=C(c1cc(-c2cccs2)nc2ccccc12)N1CCN(CCO)CC1` | -18.01% | -2.606% | 18.42% | 2.793% |
| 7 | `Cc1cccc(NC(=O)NC2CCN(C3CCOC3)CC2)c1` (stereo not drawn) | -16.94% | 4.939% | 14.29% | -5.882% |
| 8 | `CCc1nnc(C2Cc3ccccc3CN2Cc2nc(C3CC3)no2)o1` (stereo not drawn) | -16.65% | -2.495% | 4.762% | -7.692% |
| 9 | `CCOc1c(Br)cc(C2C3=C(COC3=O)Nc3[nH]nc(C)c32)cc1OC` (stereo not drawn) | -44.4% | 3.034% | 5% | 3.409% |
| 10 | `COCc1cnc2n1CCN(C(=O)c1cnc3ccccc3c1)C2C` (stereo not drawn) | -6.803% | 6.31% | 10% | -1.031% |
| 11 | `Cn1cc(CN2CCC3(CCCN(C(=O)c4cnccn4)C3)C2)cn1` (stereo not drawn) | -29.97% | 3.738% | 14.04% | 5.464% |
| 12 | `O=C1NCCCCC1NCc1csc(-c2ccc(F)cc2)n1` (stereo not drawn) | -11% | 2.932% | 7.5% | 3.947% |
| 13 | `COc1cccc(N2CC3(CCN(c4cnccn4)C3)CC2=O)c1` (stereo not drawn) | 11.57% | -5.118% | -0.885% | 5.376% |
| 14 | `CC(C)CN1CCC2(CC1)CC(NS(C)(=O)=O)c1ccccc1O2` (stereo not drawn) | -8.551% | 2.848% | 9.722% | 2.804% |
| 15 | `CC(=O)NCC(=O)N1CCN(CC2CC2)c2ncccc2C1` | -28.13% | 1.347% | 0.7299% | 6.011% |
| 16 | `CC(C)CC(C)N(C)Cc1nnc(-c2ccco2)o1` (stereo not drawn) | 12.4% | -4.746% | -3.226% | 0.5952% |
| 17 | `Cc1cc(C(=O)N2CCCC(n3ccnc3)C2)c(C)n1C1CC1` (stereo not drawn) | -17.2% | -1.675% | 10.26% | 16.24% |
| 18 | `CCCNC(=O)N1CCc2ccc(S(=O)(=O)N3CCCC3)cc2C1` | -10.26% | 6.813% | 11.11% | -3.59% |
| 19 | `CSc1ccc(CN2CCn3nc(CNC(C)=O)cc3C2)cc1` | -6.209% | 3.377% | 8.434% | 3.659% |
| 20 | `CC(c1ncc(C(C)(C)C)o1)N1CCN(Cc2ccc(Cl)s2)CC1` (stereo not drawn) | 18.8% | 0.3326% | 4.167% | 5.063% |
| 21 | `COc1cc(OC)cc(C(=O)NCCCNc2ncccn2)c1` | -20.76% | 6.688% | 20.97% | 10.34% |
| 22 | `Cc1[nH]/c(=N/C(=O)Cn2nc(N3CCOCC3)ccc2=O)sc1C` | 3.581% | 1.064% | -3.297% | 1.031% |
| 23 | `O=C(NCCNc1ncccn1)NCCSC(F)(F)F` | -14.09% | 3.995% | 9.821% | 3.448% |
| 24 | `COc1cc2cc(C)c(SCCN3CCCCC3)nc2cc1OC` | 20.9% | 1.526% | 9.929% | 3.383% |
| 25 | `OCC(CO)N1CCC(c2nccnc2Nc2cnccn2)CC1` | -4.644% | -0.6538% | 8.451% | 3.846% |
| 26 | `O=S(=O)(NCCC(O)c1cccs1)c1c(F)cccc1F` (stereo not drawn) | -24.3% | -6.01% | 10.43% | 1.031% |
| 27 | `CCN(CC(=O)NCc1nc(C2CC2)no1)Cc1ccc(Cl)cc1` | -37.99% | 2.115% | -70% | 3.896% |
| 28 | `COc1cc(CCC(=O)NCC2CCCN2C)ccc1OCC(F)(F)F` (stereo not drawn) | -5.862% | 7.181% | 25.76% | -3.03% |
| 29 | `O=C1N(CC2CCCC2)CCC12CCN(c1ncc(F)cn1)CC2` | -25.1% | 2.516% | 10.09% | 6.25% |
| 30 | `c1ccc(Cc2noc(-c3ccc(NCC4CCCCO4)nc3)n2)cc1` (stereo not drawn) | 6.061% | -4.238% | 15.29% | 6.03% |
| 31 | `CS(=O)(=O)N1CCc2ccc(=O)n(CC3CC3)c2CC1` | -32.52% | 2.402% | 11.5% | 2.151% |
| 32 | `Nc1cc2c(nn1)CCN(C(=O)c1csc(-c3ccccc3)n1)C2` | -16.7% | 2.855% | 15.79% | 17.32% |
| 33 | `O=C1CC2(CCN(Cc3ccco3)C2)CN1c1ccc2c(c1)OCO2` (stereo not drawn) | -17.14% | 7.452% | 12.73% | 4.132% |
| 34 | `CN(C)[C@@H]1CCN(CC2CC2)[C@H]1Cc1cnn(C)c1` | -29.51% | 3.157% | 14% | -5.882% |
| 35 | `O=S1(=O)C[C@@H]2[C@H](C1)N(Cc1nc3ccccc3[nH]1)CCN2CC1CC1` | -20% | 1.574% | 19.74% | 3.261% |
| 36 | `CN(C)CCCC(=O)NC1CC(C)(C)Cc2nc(C(C)(C)C)ncc21` (stereo not drawn) | -11.32% | -2.762% | -3.614% | 2.488% |
| 37 | `CC(C)[C@H]1CN(c2ccncc2)C[C@@H]1NS(=O)(=O)N(C)C` | -3.024% | 0.3674% | 8.163% | 3% |
| 38 | `CC(C)CNC(=O)c1ccc(NC(=O)NC(C)c2ccccn2)cc1` (stereo not drawn) | -23.16% | 7.247% | 22.58% | 8.929% |
| 39 | `CCc1csc(C2CCCN(C(=O)c3ncccn3)C2)n1` (stereo not drawn) | -17.75% | 0.8959% | 6.957% | 0.5747% |
| 40 | `O=C([C@H]1C[C@H]2OCC[C@H]2N(CC2CC2)C1)N1CCCC1` | -17.43% | 3.285% | 15.79% | 1.075% |
| 41 | `CC(=O)N1CCCN(CCCSc2ccccc2Cl)CC1` | -45.05% | 1.571% | 1.571% | -1.604% |
| 42 | `COc1ccc(C(=O)NS(=O)(=O)c2cncc(Br)c2)c(OC)c1` | -8.653% | 0.6753% | 6.122% | 4.103% |
| 43 | `COCC(=O)NC1CCN(c2cccc(OC(F)(F)F)c2)C1=O` (stereo not drawn) | - | 7.479% | 9.821% | 8.333% |
| 44 | `COc1cc(Nc2c(C#N)c(=O)n(C)c(=O)n2C)cc(OC)c1` | -30.38% | 4.95% | 21.31% | 4.651% |
| 45 | `Cc1nc2ccnn2c(C)c1CCC(=O)N1CCN(C2CC2)CC1` | 0.2112% | -1.317% | 19.7% | 2.273% |
| 46 | `COCCN1CCN(C(=O)NC2CC2)Cc2ccc(C)nc21` | -35.02% | 3.673% | 28.57% | 4.902% |
| 47 | `COCCN(C)c1ccc(NCc2ccsc2)nc1` | 4.519% | -4.857% | 40% | 27.27% |
| 48 | `CN(C)CCOCC1CN(Cc2ccncc2)Cc2nnn(C)c21` (stereo not drawn) | -8.142% | 2.338% | 20.83% | 8.411% |